This test can be described thus: qHTS Assay to Find Inhibitors of Chronic Active B-Cell Receptor Signaling. The conditions noted are these: ABC-DLBCL IkBa-CBG/CBR reporter, luminescence ratio (green luciferase fused to IkBa over red control in TMD8 lymphoma cells), 4 h. The gist of the method: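 TMD8 human ABC-DLBCL cells with doxycycline-inducible IκBα–green luciferase fusion and unfused red luciferase, in 0.5% FBS medium; compounds up to 46 uM, 4 h at 37C. Green/red luminescence ratio, filter-overlap corrected, fitted to concentration-response curves.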
Background: In qHTS, concentration-response curves come from the screen itself.

Where [1] appears, read: measured here: CBR red luminescence, cell number.
[2] abbreviates: measured here: IkBa-CBG green luminescence.

Each structure is given as a SMILES string. Some of the results follow. The main result of the screen is listed elsewhere. These columns were measured beside it and carry no call. The list favours compounds with an active or inconclusive main result. Words in brackets tell the shape of the fitted curve; partial curves, single points and poor fits give uncertain potencies.

As a reminder, the AC50 is the concentration at which the activity in the assay is half-maximal.

For the molecule `CCC(C)(C)C1CCc2[nH]nc(C(=O)NC3CCCC3)c2C1` (configuration not stated), the half-maximal activity concentration (AC50) under setting [1] was 5.17 µM [rising, single point].

Regarding `CC(Sc1nnc(Cc2cccs2)n1C)C(=O)Nc1ccc(C(N)=O)cc1` (configuration not stated), under setting [1], the AC50 is 23.1 µM [rising, single point].

Consider `COc1ccc(OC)c(NC(=O)C(C)Oc2ccc(Br)cc2)c1` (configuration not stated), for which the half-maximal activity concentration (AC50) under setting [2] was 14.1 µM [rising, partial curve, poor fit].

Consider `O=C(CCSCc1ccc(Cl)cc1)NCc1ccc(F)cc1Cl`, for which, under setting [1], the concentration at half-maximal activity (AC50) is 2.51 µM [falling, partial curve].

`CCn1cc(C(=O)O)c(=O)c2cnc(N3CCN(C(=S)NC(=O)c4ccc(OC)cc4)CC3)nc21`: the AC50 under setting [1] is 0.355 µM [rising, full curve, poor fit].

For the molecule `CN1C(=O)C(O)(C2COC(C)(C)CC2=O)c2cc(Br)ccc21` (configuration not stated), the concentration at half-maximal activity (AC50) is 20.6 µM [rising, single point] under setting [1] and 20.6 µM [falling, single point] under setting [2].

In the case of `O=C(NC1CCCC1)C(c1c[nH]c2ccccc12)N(C(=O)Cn1nnc(-c2ccc(Cl)cc2)n1)c1ccccc1` (configuration not stated), under setting [1], the half-maximal activity concentration (AC50) is 2 µM [falling, full curve].

In the case of `CC(=O)c1csc(COc2ccc(Cl)cc2)n1`, the half-maximal activity concentration (AC50) under setting [1] was 2.24 µM [falling, full curve].

As for `N/C(=N\OC(=O)C12CC3CC(CC(C3)C1)C2)c1ccccn1`, the AC50 under setting [1] is 2.59 µM [rising, full curve].

As to `O=C(Nc1nc(-c2ccc(-c3ccccc3)cc2)cs1)C1CCCO1` (configuration not stated), the AC50 under setting [1] was 5.17 µM [falling, partial curve].

For the molecule `CC(=O)NS(=O)(=O)c1ccc(NC(=O)CSc2ccccc2)cc1`, under setting [1], the AC50 was 35.5 µM [rising, single point].

With `CC(C)(C)NC(=O)CSc1ncnc2c1nnn2Cc1ccccc1Cl`, the AC50 under setting [1] was 10 µM [falling, partial curve, poor fit].

Consider `CCOC(=O)c1ccc(N2C(=O)CC(NC3CCN(C(=O)c4cccc(Cl)c4)CC3)C2=O)cc1` (configuration not stated), for which the AC50 under setting [1] was 29.1 µM [rising, single point].

Regarding `O=C(Nc1cc2ccccc2oc1=O)C1CCCCC1`, under setting [1], the half-maximal activity concentration (AC50) was 1 µM [falling, full curve].

On to `COCCNC(=O)CCc1c(C)nc2c(c(C)nn2-c2ccc(C)c(C)c2)c1C`, for which the AC50 under setting [1] was 7.08 µM [rising, partial curve, poor fit].

For `C=CCCCCCCCCC(=O)N1CCN(c2cc3c(cc2F)c(=O)c(C(=O)O)cn3CC)CC1`, under setting [1], the concentration at half-maximal activity (AC50) was 0.631 µM [rising, full curve, poor fit].

With `Cc1cc(C)cc(C(=O)NC(CC(N)=O)c2ccc(NCCN3CCOCC3)c([N+](=O)[O-])c2)c1` (configuration not stated), the half-maximal activity concentration (AC50) under setting [1] was 5.62 µM [falling, full curve].

With `CC12CCC(C(=O)NC3CCCCC3)([C@H](Br)C1=O)C2(C)C` (some centres not stated), under setting [1], the AC50 was 0.631 µM [rising, full curve, poor fit].

Consider `N#Cc1ccc(C(=O)CSc2nnc(-c3ccc(C(F)(F)F)cn3)s2)cc1`, for which the half-maximal activity concentration (AC50) is, setting by setting: under setting [1], 35.5 µM [falling, single point]; under setting [2], 5.62 µM [falling, single point].

As to `O=c1oc(-c2ccc(Br)cc2)nc2ccccc12`, the AC50 under setting [1] is 0.891 µM [falling, full curve].

Regarding `O=C(/C(=C/O)N=Nc1ccccc1)c1ccc(Cl)cc1`, the AC50 under setting [1] was 17.8 µM [rising, partial curve, poor fit].

As to `CCOC(=O)c1ccc(NC(=S)N2CCN(CCN=CC3=C(O)CC(C)(C)CC3=O)CC2)cc1`, the half-maximal activity concentration (AC50) runs as follows: under setting [1], 15.8 µM [falling, single point]; under setting [2], 15.8 µM [rising, partial curve, poor fit].

With `Cc1ccc(S(=O)(=O)N(C)CC(=O)O/N=C(\N)c2cccc(Br)c2)cc1`, the half-maximal activity concentration (AC50) under setting [1] is 31.6 µM [rising, single point].

Regarding `COc1ccc(CC(=O)O/N=C(\N)c2ccncc2)cc1`, the AC50 under setting [1] was 11.2 µM [rising, partial curve].

Take `Cc1ccc2nc(SCC(=O)NCc3ccco3)c(C#N)cc2c1`: the half-maximal activity concentration (AC50) under setting [1] was 5.8 µM [falling, single point].

Turning to `Cc1cccc(-n2c(C)cc(/C=N\NC(=O)c3ccco3)c2C)c1`, the AC50 is 3.55 µM [falling, partial curve, poor fit] under setting [1] and 5.01 µM [rising, partial curve, poor fit] under setting [2].

For `O=C(NCCc1c[nH]c2ccccc12)[C@@H]1C[C@H]1[C@@H](NP(=O)(c1ccccc1)c1ccccc1)c1ccccc1`, the AC50 under setting [1] is 23.1 µM [falling, single point].

As for `CCCCn1c(-c2cccc(C)c2)nc2cc3[nH]c(=O)c(C(C)C)nc3cc21`, the half-maximal activity concentration (AC50) under setting [1] is 11.2 µM [falling, partial curve] and the half-maximal activity concentration (AC50) under setting [2] was 8.91 µM [rising, partial curve, poor fit].

Turning to `Cc1ccc(-n2nc(C)cc2Nc2ncc(Cl)cc2Cl)cc1`, under setting [1], the concentration at half-maximal activity (AC50) is 29.1 µM [rising, single point].

In the case of `O=Cc1cnc(N2CCN(c3ccccc3)CC2)s1`, under setting [1], the AC50 is 12.6 µM [rising, partial curve, poor fit].

Regarding `Cc1cccn2c(=O)c3cc(S(=O)(=O)c4ccccc4)c(=N)n(Cc4ccc(F)cc4)c3nc12`, the half-maximal activity concentration (AC50) under setting [1] is 6.31 µM [falling, partial curve, poor fit].

For `Cc1ccc(-n2nc3c(c2NC(=O)c2c(F)cccc2Cl)CS(=O)(=O)C3)cc1C`, the AC50 under setting [1] was 35.5 µM [falling, single point].

For `COc1ccc(C(=O)Nc2ccc(NS(=O)(=O)c3ccccc3)cc2)cc1OC`, under setting [1], the AC50 is 35.5 µM [falling, single point].

As to `Cc1ccc(N2C(=O)c3ccccc3C2O)nc1` (configuration not stated), under setting [1], the AC50 was 16.4 µM [falling, partial curve].

Regarding `COc1cc(C)c(Cl)cc1S(=O)(=O)N1CCSC1`, under setting [1], the AC50 was 17.8 µM [rising, partial curve, poor fit].

Take `Cc1ccc(OCC(=O)N2CCN(c3nnc(-c4ccc(C)cc4)c4ccccc34)CC2)cc1`: under setting [1], the half-maximal activity concentration (AC50) was 16.4 µM [rising, single point].

In the case of `CCc1nnc(NC(=O)CCN(c2ccc(C)cc2)S(=O)(=O)c2ccccc2)s1`, the concentration at half-maximal activity (AC50) under setting [1] was 18.4 µM [falling, partial curve, poor fit].

Take `CC(=O)NCCc1nc2cc(NC(=O)c3ccccc3)ccc2n1C`: the concentration at half-maximal activity (AC50) under setting [1] is 7.08 µM [falling, partial curve].

For the molecule `Cc1cc(C)cc(-n2nnn(C3C/C(=N/NC(N)=S)C4OCC3O4)c2=S)c1` (configuration not stated), the half-maximal activity concentration (AC50) under setting [1] was 35.5 µM [falling, single point].

`Cc1ccccc1NC(=O)C1C2/C=C\CCCCC21` (configuration not stated): under setting [1], the AC50 is 0.58 µM [falling, full curve, poor fit].

As for `CCn1nc(C)c(NC(=O)CCSc2nc(-c3ccco3)cc(C(F)(F)F)n2)c1C`, the AC50 under setting [1] was 35.5 µM [falling, single point].

Consider `O=C1CCCc2[nH]nc(-c3cccnc3)c21`, for which, under setting [1], the half-maximal activity concentration (AC50) is 0.731 µM [falling, full curve, poor fit].

Regarding `CCN(CC)S(=O)(=O)c1ccc(OC)c(NC(=O)c2ccc(N3CCCC3=O)cc2)c1`, the AC50 under setting [2] was 23.1 µM [falling, partial curve, poor fit].

Turning to `O=S(=O)(NCc1cccnc1)c1ccc(Cl)c2ccccc12`, the AC50 under setting [1] was 5.01 µM [rising, single point].

For `CCCn1c(-c2nonc2N)nc2ccccc21`, under setting [2], the AC50 is 3.66 µM [rising, partial curve, poor fit].

Consider `CC1CCCCN1Cc1ccc(-c2nn[nH]n2)cc1` (configuration not stated), for which the AC50 under setting [1] is 29.1 µM [rising, single point].

`O=C(CSc1cn(CCNC(=O)c2cccs2)c2ccccc12)NC1CCCCC1`: under setting [1], the AC50 is 14.6 µM [falling, partial curve, poor fit].

`CC1CC(C)(C)n2c(O)c(N=NC(N)=S)c3cccc1c32` (configuration not stated): the AC50 was 2 µM [rising, full curve, poor fit] under setting [1] and 5.62 µM [falling, single point] under setting [2].

Turning to `COc1ccc(S(=O)(=O)Nc2ccc3c(c2)CC(=O)N([C@@H](C)CO)C[C@H](C)[C@@H](CN(C)S(=O)(=O)c2ccc(F)cc2)O3)cc1`, the half-maximal activity concentration (AC50) under setting [1] is 16.4 µM [rising, partial curve].

Consider `O=c1[nH]ncc(N/N=C\c2cccnc2)c1Cl`, for which the AC50 under setting [1] was 0.0891 µM [rising, full curve, poor fit].

In the case of `C=CCS/C(=N\n1cnc2ccccc2c1=O)N(CC)CC`, under setting [1], the half-maximal activity concentration (AC50) is 2.31 µM [rising, single point].

On to `Cc1ccc(CCNC(=O)CCn2nc(-c3ccc(C)cc3)ccc2=O)cc1`, for which the concentration at half-maximal activity (AC50) under setting [1] was 0.251 µM [rising, full curve, poor fit].

In the case of `COc1cc(OC)c2c(-c3cccc(-c4ccc(OC(F)(F)F)cc4)c3)cc(=O)oc2c1`, the AC50 under setting [1] was 23.1 µM [rising, single point].

In the case of `CCOc1ccc(NC(N)=O)cc1OCC`, the half-maximal activity concentration (AC50) under setting [1] was 9.2 µM [rising, partial curve].

For `O=C(NNC(=O)c1cc(S(=O)(=O)N2CCCCC2)ccc1Cl)c1ccccc1O`, the AC50 under setting [1] was 29.1 µM [falling, single point].

On to `COc1cccc2cc(-c3nc4ccccc4[nH]3)c(=O)oc12`, for which the AC50 under setting [1] is 3.98 µM [falling, partial curve, poor fit].

Turning to `COc1cc2c(C#CCO)c(-c3ccc(C#N)cc3)oc(=O)c2cc1OC`, under setting [1], the AC50 was 4.11 µM [falling, single point].

For `Cc1nc2ccc(S(=O)(=O)NC(C(=O)NCc3ccc4c(c3)OCO4)C(C)C)cc2s1` (configuration not stated), the AC50 under setting [1] was 6.51 µM [rising, single point].

Turning to `O=C(c1cc(COc2c(F)cccc2F)on1)N1CCC(c2ccncc2)CC1`, under setting [1], the concentration at half-maximal activity (AC50) is 4.47 µM [rising, full curve, poor fit].

In the case of `CCOC(=O)/C(C#N)=N/Nc1ccccc1C#N`, the AC50 under setting [1] is 0.562 µM [rising, full curve, poor fit].

With `O=C(NC(=O)N1CCN(c2ccccc2)CC1)c1ccc(Cl)cc1`, the AC50 under setting [1] was 1.16 µM [rising, partial curve, poor fit].

Values taken from PubChem BioAssay AID493014 (National Center for Advancing Translational Sciences (NCATS), 2011).
